doi:10.1101/2023.10.05.561144
Results are given in words; binding and its absence hold for the method and conditions named. Binding seen in cells or lysates may run through a third protein. Here binding means that the protein was enriched with, or labelled near, the bait; the list need not be complete.

Molecular target: T1, biotin ligase-conjugated casp3 (AdBioCasp3), adenoviral construct (UniProt P42574)
T1 sequence: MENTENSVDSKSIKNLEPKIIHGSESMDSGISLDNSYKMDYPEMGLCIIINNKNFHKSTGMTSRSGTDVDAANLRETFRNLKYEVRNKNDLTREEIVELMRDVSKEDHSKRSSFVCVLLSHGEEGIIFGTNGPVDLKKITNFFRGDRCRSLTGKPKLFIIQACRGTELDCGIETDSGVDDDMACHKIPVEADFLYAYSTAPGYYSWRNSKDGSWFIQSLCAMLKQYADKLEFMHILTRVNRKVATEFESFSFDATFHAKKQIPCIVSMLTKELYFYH
Assay: proximity labelling

B1: AQP1, endogenous in rat PASMCs (protein, UniProt P29975 1-269)
chain: MASEIKKKLFWRAVVAEFLAMTLFVFISIGSALGFNYPLERNQTLVQDNVKVSLAFGLSIATLAQSVGHISGAHLNPAVTLGLLLSCQISILRAVMYIIAQCVGAIVASAILSGITSSLLENSLGRNDLARGVNSGQGLGIEIIGTLQLVLCVLATTDRRRRDLGGSAPLAIGLSVALGHLLAIDYTGCGINPARSFGSAVLTRNFSNHWIFWVGPFIGSALAVLIYDFILAPRSSDFTDRMKVWTSGQVEEYDLDADDINSRVEMKPK
  binding: binds
